Assay results reported in article PMC11234460, “In Silico Discovery of Stapled Peptide Inhibitor Targeting the Nur77‐PPARγ Interaction and Its Anti‐Breast‐Cancer Efficacy” (Advanced Science, 2024).
Results are given in words; binding and its absence hold for the method and conditions named. Binding seen in cells or lysates may run through a third protein. Some results given as binding are weak or reduced against the parent protein; the word gives no strength.

Sequences of proteins named here, by UniProt entry; tags and fusion partners are left off.
UniProt P22736: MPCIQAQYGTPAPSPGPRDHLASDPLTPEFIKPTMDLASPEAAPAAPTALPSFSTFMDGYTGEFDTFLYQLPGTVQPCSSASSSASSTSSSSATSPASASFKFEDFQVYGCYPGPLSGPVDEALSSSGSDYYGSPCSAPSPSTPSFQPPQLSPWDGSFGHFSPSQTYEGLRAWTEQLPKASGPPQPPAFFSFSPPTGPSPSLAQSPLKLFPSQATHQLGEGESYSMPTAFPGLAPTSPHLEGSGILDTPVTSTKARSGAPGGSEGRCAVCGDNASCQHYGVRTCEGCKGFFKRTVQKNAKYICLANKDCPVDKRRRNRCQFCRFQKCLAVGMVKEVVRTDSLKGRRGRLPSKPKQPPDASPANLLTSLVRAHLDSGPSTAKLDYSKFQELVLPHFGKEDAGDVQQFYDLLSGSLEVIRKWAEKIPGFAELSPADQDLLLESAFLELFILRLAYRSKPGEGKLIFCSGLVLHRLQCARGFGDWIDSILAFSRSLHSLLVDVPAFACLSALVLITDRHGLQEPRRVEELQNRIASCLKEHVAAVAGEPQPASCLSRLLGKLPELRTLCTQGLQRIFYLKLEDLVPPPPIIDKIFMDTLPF
UniProt P37231: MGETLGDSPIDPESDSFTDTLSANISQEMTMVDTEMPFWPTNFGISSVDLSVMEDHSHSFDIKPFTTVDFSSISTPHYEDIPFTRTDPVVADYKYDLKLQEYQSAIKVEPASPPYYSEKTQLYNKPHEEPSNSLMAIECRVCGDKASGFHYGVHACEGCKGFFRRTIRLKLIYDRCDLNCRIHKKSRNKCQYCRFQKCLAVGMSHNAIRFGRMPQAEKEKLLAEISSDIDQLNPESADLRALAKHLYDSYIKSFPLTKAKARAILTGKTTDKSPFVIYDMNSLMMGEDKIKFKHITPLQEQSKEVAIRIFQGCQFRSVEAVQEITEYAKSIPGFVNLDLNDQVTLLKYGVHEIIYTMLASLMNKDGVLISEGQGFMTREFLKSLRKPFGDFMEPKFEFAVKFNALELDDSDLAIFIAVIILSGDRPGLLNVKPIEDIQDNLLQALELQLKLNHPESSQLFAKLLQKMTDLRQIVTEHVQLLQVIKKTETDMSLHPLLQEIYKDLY

Assays:
[1] = target: Nur77 (in HEK293T cells, co-immunoprecipitation) (UniProt P22736); test: co-IP; HEK293T cells transfected with Nur77 and PPARγ plasmids, treated with peptide (ST-CY14 1 × 10^-5 M) for 24 h; NP40 lysis; IP with Nur77 antibody, blot for PPARγ and Trim13
[2] = target: SmallBit-Nur77 (luciferase SmallBit fusion of Nur77) (UniProt P22736); test: split reporter; PPARγ-LargeBit and SmallBit-Nur77 transiently expressed in HEK293T cells; furimazine, luminescence at 37 °C

Row | binding [1] | binding [2] | Substance
1 | binds |  | PPARγ (in HEK293T cells, co-immunoprecipitation) (from UniProt P37231 1-505)
2 |  | binds | PPARγ-LargeBit (luciferase LargeBit fusion of PPARγ) (from UniProt P37231 1-505)
